Out of some 580,000 compounds screened, about 6,100 (1.1%) were called active. The inconclusive results got no clear call from the source; some entries with a clear call stand among them for comparison. Calls come from the whole dose curve; as a rule, active = well fitted inhibition curve with a large enough effect; inconclusive = small, poorly fitted or top-dose-only effect, or another doubt; inactive = no such curve, though single readings can be large or run the other way. Potencies of inconclusive entries are doubtful fits and often do not repeat.
The compounds below were run against Polyunsaturated fatty acid lipoxygenase ALOX12 (Homo sapiens) (UniProt P18054) (assay: Primary qHTS assay for inhibitors of human arachidonate 12S-lipoxygenase (ALOX12): Round 2). Details: purified 12hLO, xylenol orange hydroperoxide absorbance; activity change, negative = inhibition: at 108 µM (top of the series) unless noted.
Outline: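 Purified human 12hLO at 150 nM in 25 mM Hepes, 0.01% Triton X-100, pH 7.0, preincubated 15 min at room temperature with compound. Reaction started with 40 uM arachidonic acid, 30 min at room temperature. Hydroperoxide measured by Fe-xylenol orange, 573/405 nm absorbance ratio.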
% is set by controls: 0 for no effect and ±100 for the full control effect; potency is the fitted concentration of half-maximal effect.

Amino acid sequences for entries named in this document (tags omitted). A change or cut given only in a name is not applied to a line headed by its entry.
UniProt P18054: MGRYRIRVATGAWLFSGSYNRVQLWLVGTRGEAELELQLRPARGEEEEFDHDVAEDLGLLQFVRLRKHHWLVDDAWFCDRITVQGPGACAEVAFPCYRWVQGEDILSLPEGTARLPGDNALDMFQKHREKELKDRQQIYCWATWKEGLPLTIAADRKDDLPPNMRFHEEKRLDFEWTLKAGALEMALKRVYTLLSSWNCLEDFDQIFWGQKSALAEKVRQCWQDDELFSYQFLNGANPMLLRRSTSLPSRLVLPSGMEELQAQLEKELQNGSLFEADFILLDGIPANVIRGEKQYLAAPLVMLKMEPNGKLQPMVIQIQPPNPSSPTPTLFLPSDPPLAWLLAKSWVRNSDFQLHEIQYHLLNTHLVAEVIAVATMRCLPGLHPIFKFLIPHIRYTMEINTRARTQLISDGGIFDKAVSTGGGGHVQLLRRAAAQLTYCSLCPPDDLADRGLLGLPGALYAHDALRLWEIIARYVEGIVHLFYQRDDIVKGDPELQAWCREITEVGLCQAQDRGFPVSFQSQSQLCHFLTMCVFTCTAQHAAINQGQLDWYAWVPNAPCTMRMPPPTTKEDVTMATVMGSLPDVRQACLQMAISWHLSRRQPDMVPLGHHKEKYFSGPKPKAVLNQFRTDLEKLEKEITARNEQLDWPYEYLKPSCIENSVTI

| Structure (SMILES) | activity change, negative = inhibition | Potency |
| --- | --- | --- |
| COc1ccc(NC(=O)CCN2CCN(Cc3ccccc3)CC2)c(OC)c1 | inactive: -4.5% |  |
| Cc1ccc(-c2ccc(CCC(=O)O)n2Cc2ccco2)cc1 |  | inconclusive: 35.5 µM [inhibitor, single point] |
| Cc1ccc(Cl)cc1N(CC(=O)NCc1ccccc1)S(C)(=O)=O | inactive: 35.4% |  |
| Cc1ccc(-c2cc3c(=O)n(CCNC(=O)c4nn(C)c5ccccc45)ccn3n2)c(C)c1 |  | inconclusive: 25.1 µM [inhibitor, full curve, poor fit] |
| COc1ccc(NS(=O)(=O)c2cc(C)ccc2NC(=O)c2cc(C)oc2C)cc1 |  | inconclusive: 79.4 µM [inhibitor, partial curve, poor fit] |
| CN1OC(C)(CC(=O)Nc2ccccc2F)N=C1c1cc(F)ccc1F (centres undefined) | inactive: -13.6% |  |
| Cc1ccc(S(=O)(=O)N2[C@@H](CO)CO[C@H]2CC(=O)c2cccc3ccccc23)cc1 |  | inconclusive: 44.7 µM [inhibitor, partial curve, poor fit] |
| C[C@H]1CN([C@@H](C)CO)S(=O)(=O)c2ccc(Br)cc2O[C@H]1CN(C)S(=O)(=O)c1ccccc1F |  | inconclusive: 126 µM [inhibitor, partial curve, poor fit] |
| O=C(CCc1ccccc1)Nc1cc(S(=O)(=O)N2CCOCC2)ccc1N1CCCC1 | inactive: 2.01% |  |
| COc1ccc(OC)c(NC(=O)C2Cc3ccccc3CN2S(=O)(=O)c2ccc(F)cc2)c1 (centres undefined) |  | inconclusive: 141 µM [inhibitor, partial curve, poor fit] |
| O=C(NC(=S)Nc1ccc(F)cc1)c1ccc2c(c1)OCCO2 |  | inconclusive: 20 µM [inhibitor, partial curve, poor fit] |
| O=C1CC2(CCN(Cc3ccc(C(F)(F)F)cc3)CC2)Oc2cc(Cl)ccc21 |  | inconclusive: 15.8 µM [inhibitor, full curve] |
| Cc1cc(C[C@@H]2COC[C@@H]2NC(=O)c2cc3cc(F)ccc3n2C)on1 | inactive: 17.4% |  |
| CCc1ccc(CNC(=O)c2cc3n(n2)CCCN(Cc2ccccc2)C3=O)cc1 |  | inconclusive: 56.2 µM [inhibitor, partial curve, poor fit] |
| Cc1cc(-c2cn3ccccc3n2)c(C)n1-c1ccccc1 |  | inconclusive: 8.91 µM [inhibitor, full curve] |
| Cc1nc(-c2ccc(Cl)cc2)n(Cc2ccc(F)c(F)c2)c(=O)c1CCO |  | inconclusive: 17.8 µM [inhibitor, full curve, poor fit] |
| CC(C)COc1ccc(C(=O)N/C(=C/c2cccc([N+](=O)[O-])c2)C(=O)O)cc1 | inactive: 27.9% |  |
| COC(=O)[C@@]12CCCCN1[C@H](c1ccc(-c3ccc(Cl)c(Cl)c3)c(OC)c1)[C@H]1C(=O)N(C)C(=O)[C@H]12 | inactive: -29% |  |
| CN1CC(=O)N(C2CCNCC2)Cc2c(NCCN3CCOCC3)ncnc21 |  | inconclusive: 2.85 µM [inhibitor, single point] |
| C1=C(c2cn(-c3nc4ccccc4s3)nn2)CCCC1 |  | inconclusive: 70.8 µM [inhibitor, partial curve, poor fit] |

| Structure (SMILES) | activity change, negative = inhibition | Potency |
| --- | --- | --- |
| Cc1ccc(-n2ncc3c(NC(C)c4ccccc4)ncnc32)cc1 (centres undefined) |  | inconclusive: 44.7 µM [inhibitor, partial curve, poor fit] |
| Cc1cc(C)n(-c2nc3c(c(=O)[nH]c(=O)n3C)n2Cc2ccccc2)n1 | inactive: 44.9% |  |
| COC(=O)c1c(C)[nH]c(C(=O)COc2ccc3ccc(=O)oc3c2)c1C |  | inconclusive: 2.82 µM [inhibitor, full curve, poor fit] |
| O=C(CN(C1CCCCC1)S(=O)(=O)c1ccc(Br)cc1)N1CCCCCC1 |  | inconclusive: 44.7 µM [inhibitor, partial curve, poor fit] |
| COc1ccc2c([N+](=O)[O-])c(N3CCCC3)[nH]c2c1 |  | inconclusive: 35.5 µM [inhibitor, single point] |
| COc1cc(Br)cc2cc(-c3nc(-c4ccc(C(F)(F)F)cc4)no3)c(=O)oc12 |  | inconclusive: 39.8 µM [inhibitor, single point] |
| O=C(NC1CCCCC1)O[C@@H]1CO[C@H]2[C@@H]1OC[C@@H]2NS(=O)(=O)c1ccc(Cl)cc1 |  | inconclusive: 39.8 µM [inhibitor, full curve, poor fit] |
| CCOc1ccccc1/C=C/c1cc(C(=O)O)c2ccccc2n1 |  | inconclusive: 25.1 µM [inhibitor, partial curve, poor fit] |
| COc1ccccc1CC(=O)Nc1cc(OC)c(NC(=O)c2ccccc2)cc1OC |  | inconclusive: 39.8 µM [inhibitor, partial curve, poor fit] |
| CSc1ccc(CN2CCC(C)(Oc3ccc(CC#N)cc3)C2)cc1 (centres undefined) |  | inconclusive: 79.4 µM [inhibitor, partial curve, poor fit] |
| O=C(Nc1ccc(Cl)cc1)N(CCCN1CCOCC1)Cc1cccs1 |  | inconclusive: 112 µM [inhibitor, single point] |
| NS(=O)(=O)c1ccc(N/C=C\C(=O)c2ccncc2)cc1 |  | inconclusive: 25.1 µM [inhibitor, partial curve, poor fit] |
| Cc1ccc(C)c(N(C(=O)Cn2nnc(-c3cccs3)n2)C(C(=O)NC2CCCC2)c2ccncc2)c1 (centres undefined) | inactive: -5.59% |  |
| CC(C)NCCNC(=O)c1cccs1 |  | inconclusive: 5.62 µM [inhibitor, partial curve, poor fit] |
| Cc1ccc2sc(NNC(=O)c3cc(=O)c4ccccc4o3)nc2c1C |  | inconclusive: 28.2 µM [inhibitor, partial curve] |
| O=C(NCCc1c[nH]c2ccc(Cl)cc12)c1cccc(Cl)c1 |  | inconclusive: 50.1 µM [inhibitor, partial curve, poor fit] |
| Cc1cc(OCc2n[nH]c(=S)n2C)cc(C)c1Cl |  | inconclusive: 39.8 µM [inhibitor, partial curve, poor fit] |
| COc1ccc2nc(-c3ccco3)c(-c3ccco3)nc2c1 |  | active: 17.8 µM |
| Cc1ccc(-c2nc(CS(=O)CC(=O)NCc3ccccc3Cl)c(C)o2)cc1 (centres undefined) |  | inconclusive: 141 µM [inhibitor, single point] |

As a working copy, some entries already given.

| Structure (SMILES) | activity change, negative = inhibition | Potency |
| --- | --- | --- |
| O=C(CN(C1CCCCC1)S(=O)(=O)c1ccc(Br)cc1)N1CCCCCC1 |  | inconclusive: 44.7 µM [inhibitor, partial curve, poor fit] |
| COc1ccc2c([N+](=O)[O-])c(N3CCCC3)[nH]c2c1 |  | inconclusive: 35.5 µM [inhibitor, single point] |
| COc1cc(Br)cc2cc(-c3nc(-c4ccc(C(F)(F)F)cc4)no3)c(=O)oc12 |  | inconclusive: 39.8 µM [inhibitor, single point] |
